Data: article PMC5108339
These are yes or no findings as the source states them, for the method shown. In cells and extracts the contact can be indirect. Some entries that bind do so weakly or less than the wild type. Sequences can lack the tags named with a protein.

Protein sequences, listed by entry. Tags and fused reporters are not part of them.
UniProt P42227: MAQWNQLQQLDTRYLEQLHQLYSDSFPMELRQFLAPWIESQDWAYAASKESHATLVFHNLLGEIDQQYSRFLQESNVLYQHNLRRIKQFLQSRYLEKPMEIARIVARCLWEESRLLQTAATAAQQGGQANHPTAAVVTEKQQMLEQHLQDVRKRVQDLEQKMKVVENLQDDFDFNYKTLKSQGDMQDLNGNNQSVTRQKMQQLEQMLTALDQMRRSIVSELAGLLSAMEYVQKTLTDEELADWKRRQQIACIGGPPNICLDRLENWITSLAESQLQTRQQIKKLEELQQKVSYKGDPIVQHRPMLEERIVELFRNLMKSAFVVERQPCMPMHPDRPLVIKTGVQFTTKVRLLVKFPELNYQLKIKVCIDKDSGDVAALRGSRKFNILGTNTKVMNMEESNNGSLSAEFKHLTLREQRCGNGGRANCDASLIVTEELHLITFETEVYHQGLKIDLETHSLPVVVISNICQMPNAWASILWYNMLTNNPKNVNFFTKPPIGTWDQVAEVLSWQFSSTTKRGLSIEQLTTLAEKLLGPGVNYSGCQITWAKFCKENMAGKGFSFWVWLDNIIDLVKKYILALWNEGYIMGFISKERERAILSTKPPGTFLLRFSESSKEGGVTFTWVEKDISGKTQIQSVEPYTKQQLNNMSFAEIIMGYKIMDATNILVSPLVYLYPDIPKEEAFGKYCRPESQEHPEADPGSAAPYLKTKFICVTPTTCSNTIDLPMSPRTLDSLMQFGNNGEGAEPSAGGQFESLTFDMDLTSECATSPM

Key:
[1] = biological target: T1, FLAG-tagged CRTC2 (CREB-regulated transcriptional coactivator 2) (UniProt Q53ET0); experiment: co-IP; 293T cells transfected; lysis in 50 mM HEPES pH 8.0, 150 mM NaCl, 0.5% Triton-X 100; anti-FLAG affinity gel for 6 h, rinsed four times in lysis buffer; western blotting
T1 sequence: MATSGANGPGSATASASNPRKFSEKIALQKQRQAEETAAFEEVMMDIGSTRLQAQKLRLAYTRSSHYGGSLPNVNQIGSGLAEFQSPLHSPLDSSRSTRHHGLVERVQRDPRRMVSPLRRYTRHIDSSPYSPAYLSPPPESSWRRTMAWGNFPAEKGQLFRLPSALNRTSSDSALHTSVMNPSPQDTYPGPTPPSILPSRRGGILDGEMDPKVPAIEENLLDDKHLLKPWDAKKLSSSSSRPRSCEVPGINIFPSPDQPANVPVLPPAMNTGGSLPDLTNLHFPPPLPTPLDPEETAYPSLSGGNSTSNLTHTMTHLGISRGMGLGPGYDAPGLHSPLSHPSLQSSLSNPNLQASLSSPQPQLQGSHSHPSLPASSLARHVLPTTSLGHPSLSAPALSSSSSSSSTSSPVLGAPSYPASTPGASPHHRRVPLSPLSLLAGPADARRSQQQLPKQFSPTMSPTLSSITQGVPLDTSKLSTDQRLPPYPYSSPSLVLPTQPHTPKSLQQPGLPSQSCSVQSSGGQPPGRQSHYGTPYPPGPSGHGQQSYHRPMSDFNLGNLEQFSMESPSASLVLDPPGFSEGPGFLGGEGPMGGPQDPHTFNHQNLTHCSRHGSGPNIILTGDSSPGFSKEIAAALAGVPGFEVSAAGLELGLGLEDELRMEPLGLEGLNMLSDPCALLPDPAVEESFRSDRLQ

[2] = biological target: T2, FLAG-tagged CRTC3 (CREB-regulated transcriptional coactivator 3) (UniProt Q6UUV7); experiment: as above
T2 sequence: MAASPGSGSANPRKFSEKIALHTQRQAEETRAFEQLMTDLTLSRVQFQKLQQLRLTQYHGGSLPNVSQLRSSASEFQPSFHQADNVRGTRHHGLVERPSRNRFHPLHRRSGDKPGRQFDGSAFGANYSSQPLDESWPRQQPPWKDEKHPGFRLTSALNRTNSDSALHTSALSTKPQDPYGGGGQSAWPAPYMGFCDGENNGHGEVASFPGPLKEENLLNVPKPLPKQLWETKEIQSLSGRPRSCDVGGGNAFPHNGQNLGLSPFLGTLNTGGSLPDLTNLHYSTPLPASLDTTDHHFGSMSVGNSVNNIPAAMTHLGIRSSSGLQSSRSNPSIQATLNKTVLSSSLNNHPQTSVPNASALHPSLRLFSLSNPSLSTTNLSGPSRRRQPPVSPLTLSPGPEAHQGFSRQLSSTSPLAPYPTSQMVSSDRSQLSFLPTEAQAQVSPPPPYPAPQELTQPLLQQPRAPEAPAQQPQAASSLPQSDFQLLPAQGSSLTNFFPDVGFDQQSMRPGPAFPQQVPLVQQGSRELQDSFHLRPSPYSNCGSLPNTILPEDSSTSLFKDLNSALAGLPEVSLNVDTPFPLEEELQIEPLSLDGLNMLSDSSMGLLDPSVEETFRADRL

binding [1]: binds
binding [2]: binds
Substance: STAT3 (signal transducer and activator of transcription 3) (from UniProt P42227 1-770)
